Experimental data taken from paper doi:10.1101/2020.11.04.368498.
These are yes or no findings as the source states them, for the method shown. Some results given as binding are weak or reduced against the parent protein; the word gives no strength. Tags and fused reporters may be left off the sequences shown.

Amino acid sequences for entries named in this document (tags omitted).
UniProt Q13242: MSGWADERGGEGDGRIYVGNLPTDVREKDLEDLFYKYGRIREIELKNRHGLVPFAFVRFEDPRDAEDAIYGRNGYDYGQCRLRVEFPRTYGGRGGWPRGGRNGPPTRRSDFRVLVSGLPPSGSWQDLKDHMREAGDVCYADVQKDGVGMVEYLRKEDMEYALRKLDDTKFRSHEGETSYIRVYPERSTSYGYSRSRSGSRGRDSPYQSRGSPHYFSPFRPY
UniProt Q9UKM9: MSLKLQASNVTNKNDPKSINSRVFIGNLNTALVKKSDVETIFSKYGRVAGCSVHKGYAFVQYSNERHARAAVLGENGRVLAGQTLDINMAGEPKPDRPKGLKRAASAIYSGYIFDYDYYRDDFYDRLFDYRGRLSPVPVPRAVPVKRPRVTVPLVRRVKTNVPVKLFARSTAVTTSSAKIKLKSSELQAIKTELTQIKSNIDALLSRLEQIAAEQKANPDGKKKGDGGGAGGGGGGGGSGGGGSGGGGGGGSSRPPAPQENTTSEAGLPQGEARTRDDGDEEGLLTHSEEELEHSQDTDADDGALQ
UniProt Q07955: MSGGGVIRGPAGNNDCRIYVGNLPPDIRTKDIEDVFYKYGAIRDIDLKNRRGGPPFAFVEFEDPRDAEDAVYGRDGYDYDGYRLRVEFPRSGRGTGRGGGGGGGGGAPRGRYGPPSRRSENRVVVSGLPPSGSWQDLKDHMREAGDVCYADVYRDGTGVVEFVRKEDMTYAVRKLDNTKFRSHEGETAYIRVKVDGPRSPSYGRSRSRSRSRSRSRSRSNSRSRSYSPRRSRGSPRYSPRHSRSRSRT

Columns and labels:
Experiment in all cases: pull-down
[1] = target: T1, FLAG-tagged SRSF6 (UniProt Q13247)
T1 sequence: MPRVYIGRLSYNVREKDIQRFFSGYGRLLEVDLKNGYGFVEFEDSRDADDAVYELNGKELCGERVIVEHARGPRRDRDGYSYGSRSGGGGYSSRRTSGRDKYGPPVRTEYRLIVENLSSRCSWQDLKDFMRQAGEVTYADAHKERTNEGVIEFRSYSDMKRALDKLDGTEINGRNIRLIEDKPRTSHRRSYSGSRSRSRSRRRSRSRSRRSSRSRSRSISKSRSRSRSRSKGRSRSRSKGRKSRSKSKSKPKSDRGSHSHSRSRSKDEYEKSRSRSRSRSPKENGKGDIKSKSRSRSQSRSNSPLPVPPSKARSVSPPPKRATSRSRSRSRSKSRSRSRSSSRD

[2] = target: T2, FLAG-tagged SRSF5 (UniProt Q13243)
T2 sequence: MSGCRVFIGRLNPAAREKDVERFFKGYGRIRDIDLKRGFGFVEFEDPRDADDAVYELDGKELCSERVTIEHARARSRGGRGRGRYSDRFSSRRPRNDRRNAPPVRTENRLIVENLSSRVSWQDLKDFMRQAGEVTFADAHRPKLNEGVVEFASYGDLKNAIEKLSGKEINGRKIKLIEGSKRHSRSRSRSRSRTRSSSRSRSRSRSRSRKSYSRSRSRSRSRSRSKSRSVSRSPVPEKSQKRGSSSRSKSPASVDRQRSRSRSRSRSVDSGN

[3] = target: T3, FLAG-tagged SRSF11 (UniProt Q05519)
T3 sequence: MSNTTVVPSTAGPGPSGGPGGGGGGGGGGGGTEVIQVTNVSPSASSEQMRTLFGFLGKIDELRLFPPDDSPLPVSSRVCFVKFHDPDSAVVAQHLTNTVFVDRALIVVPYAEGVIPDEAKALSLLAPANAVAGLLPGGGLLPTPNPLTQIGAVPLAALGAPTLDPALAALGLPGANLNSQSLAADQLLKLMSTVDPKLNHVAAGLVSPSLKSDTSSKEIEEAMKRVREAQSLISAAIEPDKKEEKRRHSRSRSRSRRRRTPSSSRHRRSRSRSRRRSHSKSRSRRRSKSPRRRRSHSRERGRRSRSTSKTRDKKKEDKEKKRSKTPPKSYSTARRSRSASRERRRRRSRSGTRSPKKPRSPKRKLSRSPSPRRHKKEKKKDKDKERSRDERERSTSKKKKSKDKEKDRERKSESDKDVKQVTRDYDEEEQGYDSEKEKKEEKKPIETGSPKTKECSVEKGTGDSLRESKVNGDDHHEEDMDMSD

[4] = target: FLAG-tagged SRSF9 (UniProt Q13242)
[5] = target: T4, FLAG-tagged SRSF8 (UniProt Q9BRL6)
T4 sequence: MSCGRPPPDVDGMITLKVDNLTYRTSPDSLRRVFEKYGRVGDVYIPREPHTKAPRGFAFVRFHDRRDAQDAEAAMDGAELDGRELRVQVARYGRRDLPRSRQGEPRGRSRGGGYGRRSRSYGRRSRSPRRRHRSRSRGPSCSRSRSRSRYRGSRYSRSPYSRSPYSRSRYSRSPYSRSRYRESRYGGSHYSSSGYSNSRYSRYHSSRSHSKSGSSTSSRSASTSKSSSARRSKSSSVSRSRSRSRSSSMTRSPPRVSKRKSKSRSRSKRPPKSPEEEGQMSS

[6] = target: T5, FLAG-tagged SRSF7 (UniProt Q16629)
T5 sequence: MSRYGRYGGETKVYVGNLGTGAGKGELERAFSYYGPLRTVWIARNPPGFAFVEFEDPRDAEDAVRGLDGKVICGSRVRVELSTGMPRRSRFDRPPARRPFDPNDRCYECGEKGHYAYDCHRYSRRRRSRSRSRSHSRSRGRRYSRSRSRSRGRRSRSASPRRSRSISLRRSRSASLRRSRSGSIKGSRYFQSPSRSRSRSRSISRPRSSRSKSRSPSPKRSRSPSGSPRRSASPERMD

[7] = target: RALY (UniProt Q9UKM9)
[8] = target: GST-tagged SRSF1 (UniProt Q07955)

Measured: binding

B1: HIS-tagged Aurora-A (enzyme, UniProt O14965 1-403)
chain: MDRSKENCISGPVKATAPVGGPKRVLVTQQFPCQNPLPVNSGQAQRVLCPSNSSQRIPLQAQKLVSSHKPVQNQKQKQLQATSVPHPVSRPLNNTQKSKQPLPSAPENNPEEELASKQKNEESKKRQWALEDFEIGRPLGKGKFGNVYLAREKQSKFILALKVLFKAQLEKAGVEHQLRREVEIQSHLRHPNILRLYGYFHDATRVYLILEYAPLGTVYRELQKLSKFDEQRTATYITELANALSYCHSKRVIHRDIKPENLLLGSAGELKIADFGWSVHAPSSRRTTLCGTLDYLPPEMIEGRMHDEKVDLWSLGVLCYEFLVGKPPFEANTYQETYKRISRVEFTFPDFVTEGARDLISRLLKHNPSQRPMLREVLEHPWITANSSKPSNCQNKESASKQS
binds: all assays above
